B1: TRIM15 CPS-YFP (domain or fragment, UniProt Q9C019 120-465)
chain: DEAIQPYRDRLRSRLEALSTERDEIEDVKCQEDQKLQVLLTQIESKKHQVETAFERLQQELEQQRCLLLARLRELEQQIWKERDEYITKVSEEVTRLGAQVKELEEKCQQPASELLQDVRVNQSRCEMKTFVSPEAISPDLVKKIRDFHRKILTLPEMMRMFSENLAHHLEIDSGVITLDPQTASRSLVLSEDRKSVRYTRQKKSLPDSPLRFDGLPAVLGFPGFSSGRHRWQVDLQLGDGGGCTVGVAGEGVRRKGEMGLSAEDGVWAVIISHQQCWASTSPGTDLPLSEIPRGVRVALDYEAGQVTLHNAQTQEPIFTFTASFSGKVFPFFAVWKKGSCLTLKG
B2: TRIM15 R-CPS-YFP (protein, UniProt Q9C019)
chain: MPATPSLKVVHELPACTLCAGPLEDAVTIPCGHTFCRLCLPALSQMGAQSSGKILLCPLCQEEEQAETPMAPVPLGPLGEDEAIQPYRDRLRSRLEALSTERDEIEDVKCQEDQKLQVLLTQIESKKHQVETAFERLQQELEQQRCLLLARLRELEQQIWKERDEYITKVSEEVTRLGAQVKELEEKCQQPASELLQDVRVNQSRCEMKTFVSPEAISPDLVKKIRDFHRKILTLPEMMRMFSENLAHHLEIDSGVITLDPQTASRSLVLSEDRKSVRYTRQKKSLPDSPLRFDGLPAVLGFPGFSSGRHRWQVDLQLGDGGGCTVGVAGEGVRRKGEMGLSAEDGVWAVIISHQQCWASTSPGTDLPLSEIPRGVRVALDYEAGQVTLHNAQTQEPIFTFTASFSGKVFPFFAVWKKGSCLTLKG
B3: TRIM15-YFP (protein, UniProt Q9C019 1-465)
chain: MPATPSLKVVHELPACTLCAGPLEDAVTIPCGHTFCRLCLPALSQMGAQSSGKILLCPLCQEEEQAETPMAPVPLGPLGETYCEEHGEKIYFFCENDAEFLCVFCREGPTHQAHTVGFLDEAIQPYRDRLRSRLEALSTERDEIEDVKCQEDQKLQVLLTQIESKKHQVETAFERLQQELEQQRCLLLARLRELEQQIWKERDEYITKVSEEVTRLGAQVKELEEKCQQPASELLQDVRVNQSRCEMKTFVSPEAISPDLVKKIRDFHRKILTLPEMMRMFSENLAHHLEIDSGVITLDPQTASRSLVLSEDRKSVRYTRQKKSLPDSPLRFDGLPAVLGFPGFSSGRHRWQVDLQLGDGGGCTVGVAGEGVRRKGEMGLSAEDGVWAVIISHQQCWASTSPGTDLPLSEIPRGVRVALDYEAGQVTLHNAQTQEPIFTFTASFSGKVFPFFAVWKKGSCLTLKG
B4: TRIM15 B-box-YFP (domain or fragment, UniProt Q9C019 64-129)
chain: EQAETPMAPVPLGPLGETYCEEHGEKIYFFCENDAEFLCVFCREGPTHQAHTVGFLDEAIQPYRDR
B5: TRIM15 BCPS-YFP (domain or fragment, UniProt Q9C019 65-465)
chain: QAETPMAPVPLGPLGETYCEEHGEKIYFFCENDAEFLCVFCREGPTHQAHTVGFLDEAIQPYRDRLRSRLEALSTERDEIEDVKCQEDQKLQVLLTQIESKKHQVETAFERLQQELEQQRCLLLARLRELEQQIWKERDEYITKVSEEVTRLGAQVKELEEKCQQPASELLQDVRVNQSRCEMKTFVSPEAISPDLVKKIRDFHRKILTLPEMMRMFSENLAHHLEIDSGVITLDPQTASRSLVLSEDRKSVRYTRQKKSLPDSPLRFDGLPAVLGFPGFSSGRHRWQVDLQLGDGGGCTVGVAGEGVRRKGEMGLSAEDGVWAVIISHQQCWASTSPGTDLPLSEIPRGVRVALDYEAGQVTLHNAQTQEPIFTFTASFSGKVFPFFAVWKKGSCLTLKG
B6: TRIM15 RBC-YFP (domain or fragment, UniProt Q9C019 1-345)
chain: MPATPSLKVVHELPACTLCAGPLEDAVTIPCGHTFCRLCLPALSQMGAQSSGKILLCPLCQEEEQAETPMAPVPLGPLGETYCEEHGEKIYFFCENDAEFLCVFCREGPTHQAHTVGFLDEAIQPYRDRLRSRLEALSTERDEIEDVKCQEDQKLQVLLTQIESKKHQVETAFERLQQELEQQRCLLLARLRELEQQIWKERDEYITKVSEEVTRLGAQVKELEEKCQQPASELLQDVRVNQSRCEMKTFVSPEAISPDLVKKIRDFHRKILTLPEMMRMFSENLAHHLEIDSGVITLDPQTASRSLVLSEDRKSVRYTRQKKSLPDSPLRFDGLPAVLGFPGFS

No constants are given. Whether binding was seen depends on the method and setting. Binding seen in cells or lysates may run through a third protein. A result given as binding can be weak or reduced; the word gives no strength. Sequences can lack the tags named with a protein.

Drawing on paper PMC2222954, this text covers binding for 7 molecules.

In the first test the target is T1, human TRIM15 (untagged) (human) (UniProt Q9C019).
T1 sequence: B3 chain
Kind of test: co-IP; HEK293 cells co-transfected, lysed 48 h later in triple detergent lysis buffer (100 mM Tris pH 8.0, 1% Triton-X-100, 0.5% sodium deoxycholate, 0.2% SDS, 150 mM NaCl); precipitated on protein-G beads with antibodies to TRIM15, isotype specific antibodies as control; western blot with antibodies to GFP to detect MLV Gag-GFP. A general note: In western blotting, separated proteins are transferred to a membrane and probed.
As to MLV Gag-GFP, the binding result was “binds”.

Another test addresses MLV Gag precursor protein (from the full length Friend MLV genome) (Friend 57 murine leukemia virus). Nature of the test: co-IP; HEK293 cells co-transfected, lysed 48 h later in triple detergent lysis buffer (100 mM Tris pH 8.0, 1% Triton-X-100, 0.5% sodium deoxycholate, 0.2% SDS, 150 mM NaCl); precipitated on protein-G beads with antibodies to MLV capsid, isotype specific antibodies as control; western blot with antibodies to GFP to detect TRIM15-YFP derivatives.
In the case of B1, the binding result is reported as “no binding”.
On the same count and under the same terms, then B2, with “no binding”.
Same read-out and setting: the value for B3 was “binds”.
On the same count and under the same terms, the value for B4 was “binds”.
As for B5, the binding entry is “binds”.
As to B6, the binding result is reported as “binds”.
